Reference: the supplement of paper PMC3334620
In all, about 33,000 sequences were measured (“E-score (-0.5 to 0.5)”: median about -8e-05, highest 2% from about 0.23 on). This is one part of the list.

biological target: T1, Nrg2 (UniProt P38082); test: PBM E-score (8-mer binding enrichment) (E-score (-0.5 to 0.5)); higher = stronger / more preferred TF binding; conditions: protein concentration: 100 nM; construct: GST-full length
T1 sequence: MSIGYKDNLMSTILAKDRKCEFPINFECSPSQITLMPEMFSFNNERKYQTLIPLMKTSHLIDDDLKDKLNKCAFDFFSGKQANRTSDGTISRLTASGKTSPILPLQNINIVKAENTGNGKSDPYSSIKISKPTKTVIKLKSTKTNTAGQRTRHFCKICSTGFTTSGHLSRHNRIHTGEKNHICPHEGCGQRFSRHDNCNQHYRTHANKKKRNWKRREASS
Experimental: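 Universal 'all 10-mer' protein binding microarrays (Agilent AMADID 015681) probed with GST-tagged S. cerevisiae TFs (full-length or DBD) made by in vitro transcription/translation (PURExpress), about 100-200 nM. Bound TF was detected with fluorescent anti-GST. Each ungapped 8-mer (which stands for itself and its reverse complement) is scored by the PBM enrichment score (E-score), a modified Wilcoxon-Mann-Whitney statistic from -0.5 to +0.5, computed with the Universal PBM Analysis Suite. Scale: above 0.35 generally sequence-specific binding.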

Sequence | PBM E-score
AAAGCTTC | -0.122
ATATCGAT | 0.213
CTATGCTA | -0.00029
ATGTTGAC | 0.0638
CAGGGGGA | -0.184
GAGTCTAC | -0.0996
GTTTCTAA | -0.0624
CAGTGCAA | 0.0968
GTTTACTA | 0.155
GGCGTTTA | -0.0523
TACACCCA | 0.149
CAAATTTG | 0.107
ACCAGTCA | -0.0898
CACCATAC | -0.0811
GTTGACGA | 0.00106
ATAAATTA | 0.316
CAACTCTC | 0.0117
CCAATCCC | 0.112
ACTATCTC | 0.0488
CGTATGTC | -0.0721
AAGTTAAC | 0.106
ATCGTTAA | 0.188
CTATTTTA | 0.121
GTAATGTA | -0.19
CCTGGTAC | 0.143

Sequence | PBM E-score
AGTGGTCC | -0.0166
CCAACAAG | 0.0665
CGTTACAG | 0.0283
AGGGTTCA | 0.281
GTTACACA | -0.0481
ATCATGTC | 0.0168
ATAATAGG | 0.203
ACTGTACT | 0.0706
CAGAGGGG | -0.314
CTCTATTA | -0.105
AAGGCTAG | -0.0047
ACCCTGTA | 0.347
CGTTGGCC | -0.254
TCGGGGAA | 0.0293
CCCACGAC | -0.126
CCAACTCC | 0.224
AATTGAGC | -0.0424
CGGGTTAG | -0.218
AAGGTCAG | -0.0844
AGTCCGCG | -0.0189
CGAGGGAA | 0.0651
CTATTGGC | -0.222
GGGAACAA | 0.0199
GAGTGAGC | -0.043
ACATCTTA | 0.117

Sequence | PBM E-score
AATTTCAC | 0.0325
ACTCGTCT | 0.147
GCGGAGCA | -0.189
AAGCACTC | -0.111
CGCATAGC | -0.043
ACACTGTC | -0.0654
ACGAAGAT | 0.0578
ACGCGAGT | -0.0098
AGGTCTAG | -0.162
AGATATAG | 0.00406
CATAGCAG | -0.256
GGTCGACA | -0.00124
ACGAGCTC | 0.0413
GATACCAC | 0.104
TGTCTGAA | 0.0253
GGGATACC | -0.051
ATAGTGTA | 0.0816
CACAAGAA | 0.245
AAGCTTCT | -0.0885
AGTTTTCA | -0.054
AGGATGGG | -0.104
AAGCAAAC | 0.0587
CGTTGGAA | -0.165
AGTAACCG | 0.0546
CCTCCCCA | 0.0795

Sequence | PBM E-score
AACATTGC | -0.0856
CGTAGGGA | -0.032
AACTCAGC | 0.129
CAATGAAA | 0.112
ACCATTCC | 0.00799
ACGGACAG | -0.0106
CTTTGTAA | -0.0719
AAAGAACG | 0.0453
GAGCCGGA | -0.0577
AGCAAGGG | 0.261
AACGTACC | -0.205
CGCACATC | 0.0591
CTCTCGTC | -0.147
AAGGAACA | 0.0535
ATATCGTG | 0.0993
AATGGCCG | -0.134
GAAGTGCC | -0.207
GGGATTAC | -0.0748
ATTCGGCC | 0.0563
GTCATCCA | 0.0788
TATGCATA | 0.00029
CATTTAGA | -0.076
ACTTTCCA | 0.0756
TGGTTAAA | -0.0231
CTCAGAGA | -0.0684

Sequence | PBM E-score
GTGAATAA | 0.167
AGACACAA | 0.0209
CGTAAAAA | -0.0837
AGGACCCT | 0.369
ATGCTTTG | -0.0734
ATAATTAT | 0.228
ATAAATGC | 0.166
CTTGTGCC | -0.222
ACCTTTCT | 0.026
CCTCTACC | -0.00218
ACAGAGGG | -0.139
CCCCAGGC | -0.284
ATCAACCG | 0.0105
ATTGTATC | 0.03
CTCACGGA | -0.101
ACACTGCC | 0.145
ATTGGGAC | -0.0162
GGGCCGGA | -0.138
GGTGCAAA | -0.142
ACCAGACG | -0.0721
ATACCAGA | 0.226
GTTAAAGA | -0.00414
AATCAGGC | -0.0687
CAGTAGCA | -0.0511
GATTGAGC | -0.0352

A stretch of the results above:
Sequence | PBM E-score
ACCAGTCA | -0.0898
CACCATAC | -0.0811

In a second layout: entries from further up.

| Sequence | PBM E-score |
| --- | --- |
| AGATATAG | 0.00406 |
| CATAGCAG | -0.256 |
| GGTCGACA | -0.00124 |
| ACGAGCTC | 0.0413 |
| GATACCAC | 0.104 |

(further entries)

Sequence | PBM E-score
ACCCTCCT | -0.14
ATGGCGAG | 0.0321
CAGCCGTA | -0.11
ACGTACGA | -0.199
AGTATGGA | 0.0835
CACGATGA | 0.0225
AGCCCGTG | -0.112
ACGTGTCC | -0.31
TGCGGGAA | 0.125
AGTTATCC | 0.118
CTAGCTGA | -0.0111
AAGAGAAA | 0.0319
AGTAAGAA | 0.109
GAAATTGA | -0.0291
GCTCAACC | -0.128
CACCCCCA | -0.313
CGAAAGGA | 0.112
AAAGCACG | -0.0854
GCATTCTA | 0.0303
AAAGCGAG | 0.187
AAGACCTG | -0.198
GCGTGGGA | -0.129
CCAAACAC | 0.118
AATACCAG | 0.206
AACCGCTG | -0.121

Pulled one by one from above:
Sequence | PBM E-score
AAGACCTG | -0.198
AGTTATCC | 0.118
CGAAAGGA | 0.112
CACCCCCA | -0.313
GAAATTGA | -0.0291
GCTCAACC | -0.128

Additional entries follow.

Sequence | PBM E-score
GAAGCTAC | 0.0431
AAATACCA | 0.0391
TGTCCTAA | -0.0512
AAAGCAAT | 0.184
AACACAAC | 0.0186
GGATGGCA | 0.188
TACGTATA | 0.00553
AAGGGACA | 0.137
GGCTTACA | 0.102
AGAGTATC | 0.0869
GGGGCGAA | 0.0259
ACTGTGCG | 0.0695
ACCTCCGA | -0.147
ATTGTGTG | -0.0481
ATCTACCC | -0.00404
CCATTACG | -0.0797
GCCCTCCA | -0.128
ACCGGTGA | -0.118
CACCCCCG | -0.365
CCCACACG | 0.159
AGGTTTTG | -0.0406
ACAACTGA | -0.0194
